Assay: general procedure: solution-phase peptide synthesis; EDC·HCl / 1-Hydroxybenzotriazole

| Substance | final HPLC purity (cyclisation step, run 1) | final HPLC purity (cyclisation step, run 2) | cyclisation yield (cyclisation step, overall) | step yield (late stage modification step) |
| --- | --- | --- | --- | --- |
| (10S,13S,16R)-16-amino-N—((S)-1-amino-1-oxo-3-phenylpropan-2-yl)-13-(4-hydroxy-2,6-dimethylbenzyl)-2-imino-4,12,15-trioxo-1,3,5,11,14-pentaazacyclononadecane-10-carboxamide | 97.0% | 97.6% | overall yield 6.5% | – |
| D-(N2-Boc)-Arg-DMT-Lys-Phe-NH2 | – | – | – | 66% |
